Measured values taken from paper PMC10182284, “Rotary properties of hybrid F1-ATPases consisting of subunits from different species” (iScience, 2023).
No constants are given. Whether binding was seen depends on the method and setting. Some binding calls cover weakened binding; strength is not graded here.

By UniProt entry, the sequences of proteins in these tests, tags left out. Residues count along the entry.
UniProt A1B8P0: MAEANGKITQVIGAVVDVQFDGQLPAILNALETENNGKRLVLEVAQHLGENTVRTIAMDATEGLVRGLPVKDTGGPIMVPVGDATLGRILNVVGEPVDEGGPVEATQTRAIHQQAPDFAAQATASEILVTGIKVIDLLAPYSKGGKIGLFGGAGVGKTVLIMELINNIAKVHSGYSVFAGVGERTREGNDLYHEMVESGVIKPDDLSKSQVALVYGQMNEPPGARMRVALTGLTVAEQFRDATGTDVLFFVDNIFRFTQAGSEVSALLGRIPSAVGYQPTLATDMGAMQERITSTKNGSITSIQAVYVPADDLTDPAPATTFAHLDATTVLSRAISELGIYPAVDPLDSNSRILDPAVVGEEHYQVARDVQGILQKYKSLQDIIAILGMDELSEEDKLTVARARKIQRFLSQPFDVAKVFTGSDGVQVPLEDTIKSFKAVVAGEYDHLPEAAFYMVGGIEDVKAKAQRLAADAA
UniProt P00829, residues 47-528: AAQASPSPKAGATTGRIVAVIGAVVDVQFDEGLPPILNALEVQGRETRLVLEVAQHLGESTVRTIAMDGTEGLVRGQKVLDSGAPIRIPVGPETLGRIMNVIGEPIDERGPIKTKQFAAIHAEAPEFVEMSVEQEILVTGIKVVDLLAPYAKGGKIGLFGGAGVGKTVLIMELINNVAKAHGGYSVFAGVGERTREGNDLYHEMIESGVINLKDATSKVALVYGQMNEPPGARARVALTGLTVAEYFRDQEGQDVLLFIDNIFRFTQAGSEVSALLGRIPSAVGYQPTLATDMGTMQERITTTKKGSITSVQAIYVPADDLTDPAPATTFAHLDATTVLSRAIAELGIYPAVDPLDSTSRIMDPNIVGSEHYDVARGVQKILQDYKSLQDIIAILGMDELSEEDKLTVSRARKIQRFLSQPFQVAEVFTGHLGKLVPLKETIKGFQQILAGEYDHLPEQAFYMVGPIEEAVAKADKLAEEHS
UniProt A1B8N8: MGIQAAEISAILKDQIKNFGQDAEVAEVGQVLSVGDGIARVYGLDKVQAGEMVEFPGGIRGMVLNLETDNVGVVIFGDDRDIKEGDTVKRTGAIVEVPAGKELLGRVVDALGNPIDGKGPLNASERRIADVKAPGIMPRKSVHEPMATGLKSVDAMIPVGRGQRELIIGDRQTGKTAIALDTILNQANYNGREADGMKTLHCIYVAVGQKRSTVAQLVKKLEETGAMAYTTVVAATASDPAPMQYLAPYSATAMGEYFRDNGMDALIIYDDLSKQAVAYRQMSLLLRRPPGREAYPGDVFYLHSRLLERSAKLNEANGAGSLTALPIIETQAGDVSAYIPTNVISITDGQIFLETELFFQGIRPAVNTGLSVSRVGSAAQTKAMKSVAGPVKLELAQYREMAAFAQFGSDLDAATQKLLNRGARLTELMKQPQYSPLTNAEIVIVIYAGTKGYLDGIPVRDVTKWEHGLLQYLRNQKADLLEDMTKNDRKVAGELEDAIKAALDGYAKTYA
UniProt P09219: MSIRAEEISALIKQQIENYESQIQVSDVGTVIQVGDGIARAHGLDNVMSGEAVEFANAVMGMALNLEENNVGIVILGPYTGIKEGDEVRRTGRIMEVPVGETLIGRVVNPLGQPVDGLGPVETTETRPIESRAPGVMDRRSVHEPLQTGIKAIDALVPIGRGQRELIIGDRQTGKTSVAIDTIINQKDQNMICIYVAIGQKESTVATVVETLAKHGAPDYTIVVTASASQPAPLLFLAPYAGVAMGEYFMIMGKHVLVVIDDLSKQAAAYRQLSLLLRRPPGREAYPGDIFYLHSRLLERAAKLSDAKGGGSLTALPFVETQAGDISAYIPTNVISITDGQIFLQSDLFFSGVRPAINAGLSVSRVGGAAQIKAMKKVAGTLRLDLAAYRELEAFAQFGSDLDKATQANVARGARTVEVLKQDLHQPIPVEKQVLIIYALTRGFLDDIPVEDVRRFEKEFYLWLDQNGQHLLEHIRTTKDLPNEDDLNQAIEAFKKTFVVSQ

Tests used:
[1] = molecular target: β subunit of F1-ATPase from Paracoccus denitrificans (PdF1) (Paracoccus denitrificans) (UniProt A1B8P0); experiment: co-expression and co-purification, SDS-PAGE; subunits co-expressed from one plasmid in E. coli; F1 complex purified as for bMF1 (ref. 26) or PdF1 (ref. 27); conformation of α3β3γ1 confirmed with SDS-PAGE
[2] = molecular target: β subunit of bovine mitochondrial F1-ATPase (bMF1) (bovine) (UniProt P00829); experiment: as above

Row | Substance | binding [1] | binding [2]
1 | α subunit of F1-ATPase from Paracoccus denitrificans (PdF1) (from UniProt A1B8N8 1-511) | binds | binds
2 | α subunit of F1-ATPase from thermophilic Bacillus PS3 (TF1) (from UniProt P09219 1-502) |  | binds
